Positions count from the first letter of the chain named. No constants are given. Whether binding was seen depends on the method and setting. In cells and extracts the contact can be indirect. Some binding calls cover weakened binding; strength is not graded here. Where a sequence is shown, tags or fusion partners need not be part of it.
What was measured:
[1] = target: T1, Flag-tagged SHARPIN R274W mutant (UniProt Q9H0F6); test: co-IP; 293T cells transiently co-transfected with Flag-tagged SHARPIN (WT or R274W) and Myc-tagged HOIP; immunoprecipitated with anti-Flag antibody, western blot (Fig. 4B)
T1 sequence: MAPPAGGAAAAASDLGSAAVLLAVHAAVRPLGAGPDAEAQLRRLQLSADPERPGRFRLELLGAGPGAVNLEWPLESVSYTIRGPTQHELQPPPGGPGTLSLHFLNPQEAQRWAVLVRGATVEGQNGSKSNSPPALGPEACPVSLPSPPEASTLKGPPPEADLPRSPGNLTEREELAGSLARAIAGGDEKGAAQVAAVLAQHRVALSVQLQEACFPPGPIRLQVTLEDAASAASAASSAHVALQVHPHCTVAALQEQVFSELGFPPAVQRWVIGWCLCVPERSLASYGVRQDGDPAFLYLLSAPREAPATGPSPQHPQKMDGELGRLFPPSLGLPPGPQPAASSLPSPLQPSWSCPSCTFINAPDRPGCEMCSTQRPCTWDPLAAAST

Protein sequences, listed by entry. Tags and fused reporters are not part of them.
UniProt Q96EP0: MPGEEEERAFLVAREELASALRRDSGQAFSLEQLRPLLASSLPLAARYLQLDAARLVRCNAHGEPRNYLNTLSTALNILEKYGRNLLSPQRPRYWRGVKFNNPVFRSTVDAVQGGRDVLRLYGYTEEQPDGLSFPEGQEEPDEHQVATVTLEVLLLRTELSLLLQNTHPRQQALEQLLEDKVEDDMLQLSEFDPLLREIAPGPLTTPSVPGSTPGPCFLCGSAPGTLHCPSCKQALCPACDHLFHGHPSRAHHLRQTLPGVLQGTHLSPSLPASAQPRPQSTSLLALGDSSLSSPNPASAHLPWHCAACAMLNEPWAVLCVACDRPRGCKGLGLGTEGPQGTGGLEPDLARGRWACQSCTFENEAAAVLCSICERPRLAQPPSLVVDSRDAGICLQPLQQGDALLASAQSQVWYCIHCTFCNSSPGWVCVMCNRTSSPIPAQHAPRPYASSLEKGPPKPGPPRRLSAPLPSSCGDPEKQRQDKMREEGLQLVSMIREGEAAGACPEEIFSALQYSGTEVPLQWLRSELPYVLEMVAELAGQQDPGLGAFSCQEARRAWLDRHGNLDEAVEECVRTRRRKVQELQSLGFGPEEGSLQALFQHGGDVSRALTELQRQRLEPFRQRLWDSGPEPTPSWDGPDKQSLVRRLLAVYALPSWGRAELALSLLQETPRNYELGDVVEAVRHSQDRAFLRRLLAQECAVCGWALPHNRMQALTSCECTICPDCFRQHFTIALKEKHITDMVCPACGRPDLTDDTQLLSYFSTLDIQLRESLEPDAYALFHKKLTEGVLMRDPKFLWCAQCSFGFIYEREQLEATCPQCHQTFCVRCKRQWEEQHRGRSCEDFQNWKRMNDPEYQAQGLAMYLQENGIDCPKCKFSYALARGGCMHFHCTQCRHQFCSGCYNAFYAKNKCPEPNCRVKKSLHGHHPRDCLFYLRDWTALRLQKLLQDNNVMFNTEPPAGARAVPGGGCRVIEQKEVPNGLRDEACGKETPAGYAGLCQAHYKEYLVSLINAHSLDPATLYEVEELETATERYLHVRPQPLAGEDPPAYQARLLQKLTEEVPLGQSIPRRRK

[2] = target: T2, Flag-tagged SHARPIN WT (SHANK-associated RH Domain Interactor) (UniProt Q9H0F6); test: as above
T2 sequence: T1 sequence with W274R

binding [1]: binds
binding [2]: binds
Substance: Myc-tagged HOIP WT (HOIL-1-interacting protein) (from UniProt Q96EP0 1-1072)
